Earlier results on one molecule are cited in patent publication US20130005824A1, “TREATMENT OF ISCHEMIC TISSUE” (The Research Foundation of State University of New York, priority 2009, published 2013).

The conditions of this series: cited from earlier work.

Turning to `COc1cc(/C=C/C(=O)CC(=O)/C=C/c2ccc(O)c(OC)c2)ccc1O` [curcumin, (E,E)-1,7-bis (4-hydroxy-3-methoxyphenyl)-1,6-heptadiene-3,5,-dione], the “solubility in organic solvents and alkalis” value (ethanol, alkalis, ketones, acetic acid and chloroform) is given as “soluble”. The solubility in water entry (water) is “insoluble”.
